PubChem BioAssay AID743458 – Peter MacCallum Cancer Centre | 2014
The deposit covers about 1,800 reagents; shown is an unselected part. Over the whole deposit, 732 (41%) are marked active. 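Calls are per siRNA reagent; a gene was deemed confirmed only if most of its four siRNAs scored.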 The numbers tell different reagents against one gene apart. No sequences are given here.

- Aim: 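Retest earlier hits with independent siRNAs per gene for restoring vorinostat sensitivity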 (follow-up of hits)
- System: human HCT116-VR colon cancer cells made resistant to vorinostat
- Reagents: single siRNA or pool against human genes, 25 nM per single siRNA
- Time to read-out: about 72 h after transfection, including 24 h of drug
- Conditions: vorinostat, 2.5 µM final, for 24 h
- Detection: 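Live-cell fluorescent viability and luminescent caspase 3/7 activity after vorinostat treatment, background subtracted, mean of duplicate plates, as fold change over mock-transfected wells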
- Direction: viability relative to mock: higher = more living cells than mock; caspase activity relative to mock: higher = more apoptosis than mock
- Rule for the call: 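An siRNA counts as active if classed as reduced viability or as caspase activation, otherwise inactive; a hit class needed wells that remained healthy in the absence of drug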

target gene	reagent no.	viability relative to mock	caspase activity relative to mock	viability hit class	caspase hit class	outcome
MMP13 (matrix metallopeptidase 13)	1	0.75	3.38	no change	caspase activation	active
MMP13 (matrix metallopeptidase 13)	2	1	1.32	no change	no change	inactive
MMP13 (matrix metallopeptidase 13)	3	0.96	1.38	no change	no change	inactive
MMP13 (matrix metallopeptidase 13)	4	0.98	0.99	no change	no change	inactive
INPP5K (inositol polyphosphate-5-phosphatase K)	1	1.09	2	no change	no change	inactive
INPP5K (inositol polyphosphate-5-phosphatase K)	2	0.52	2.8	reduced viability	caspase activation	active
INPP5K (inositol polyphosphate-5-phosphatase K)	3	0.91	1.44	no change	no change	inactive
INPP5K (inositol polyphosphate-5-phosphatase K)	4	1.07	1.83	no change	no change	inactive
THAP3 (THAP domain containing 3)	1	0.37	3.46	reduced viability	caspase activation	active
THAP3 (THAP domain containing 3)	2	0.63	2.84	no change	caspase activation	active
THAP3 (THAP domain containing 3)	3	0.51	5.08	reduced viability	caspase activation	active
THAP3 (THAP domain containing 3)	4	0.57	0.66	no change	no change	inactive
MT3 (metallothionein 3)	1	0.45	4.46	reduced viability	caspase activation	active
MT3 (metallothionein 3)	2	0.98	1.37	no change	no change	inactive
MT3 (metallothionein 3)	3	0.76	1.09	no change	no change	inactive
MT3 (metallothionein 3)	4	0.54	1.78	reduced viability	no change	active
COL11A2 (collagen type XI alpha 2 chain)	1	0.26	3.58	reduced viability	caspase activation	active
COL11A2 (collagen type XI alpha 2 chain)	2	0.48	5.59	reduced viability	caspase activation	active
COL11A2 (collagen type XI alpha 2 chain)	3	0.66	0.81	no change	no change	inactive
COL11A2 (collagen type XI alpha 2 chain)	4	0.8	1.85	no change	no change	inactive
CRIM1 (cysteine rich transmembrane BMP regulator 1)	1	0.76	1.46	no change	no change	inactive
CRIM1 (cysteine rich transmembrane BMP regulator 1)	2	1.03	4.59	no change	caspase activation	active
CRIM1 (cysteine rich transmembrane BMP regulator 1)	3	0.81	1.67	no change	no change	inactive
CRIM1 (cysteine rich transmembrane BMP regulator 1)	4	0.82	2.94	no change	caspase activation	active
SNRPE (small nuclear ribonucleoprotein polypeptide E)	1	0.43	0.88	reduced viability	no change	active
SNRPE (small nuclear ribonucleoprotein polypeptide E)	2	0.47	1.59	reduced viability	no change	active
SNRPE (small nuclear ribonucleoprotein polypeptide E)	3	0.49	1.32	reduced viability	no change	active
SNRPE (small nuclear ribonucleoprotein polypeptide E)	4	0.26	1.08	reduced viability	no change	active
RAB29 (RAB29, member RAS oncogene family)	1	0.72	5.16	no change	caspase activation	active
RAB29 (RAB29, member RAS oncogene family)	2	0.31	3.73	reduced viability	caspase activation	active
RAB29 (RAB29, member RAS oncogene family)	3	0.82	1.66	no change	no change	inactive
RAB29 (RAB29, member RAS oncogene family)	4	0.73	1.59	no change	no change	inactive
ZNF830 (zinc finger protein 830)	1	0.86	1.92	no change	no change	inactive
ZNF830 (zinc finger protein 830)	2	0.5	5.56	reduced viability	caspase activation	active
ZNF830 (zinc finger protein 830)	3	0.52	4.49	reduced viability	caspase activation	active
ZNF830 (zinc finger protein 830)	4	0.84	0.92	no change	no change	inactive
PGAM1 (phosphoglycerate mutase 1)	1	0.9	1.36	no change	no change	inactive
PGAM1 (phosphoglycerate mutase 1)	2	0.54	3.67	reduced viability	caspase activation	active
PGAM1 (phosphoglycerate mutase 1)	3	0.96	1.12	no change	no change	inactive
PGAM1 (phosphoglycerate mutase 1)	4	1.08	1.09	no change	no change	inactive
